These are yes or no findings as the source states them, for the method shown. In cells and extracts the contact can be indirect. These calls come from enrichment with a bait or labelling near it, and not all partners need be listed.
B1: POLD3 (endogenous) (protein, UniProt Q15054 1-466)
chain: MADQLYLENIDEFVTDQNKIVTYKWLSYTLGVHVNQAKQMLYDYVERKRKENSGAQLHVTYLVSGSLIQNGHSCHKVAVVREDKLEAVKSKLAVTASIHVYSIQKAMLKDSGPLFNTDYDILKSNLQNCSKFSAIQCAAAVPRAPAESSSSSKKFEQSHLHMSSETQANNELTTNGHGPPASKQVSQQPKGIMGMFASKAAAKTQETNKETKTEAKEVTNASAAGNKAPGKGNMMSNFFGKAAMNKFKVNLDSEQAVKEEKIVEQPTVSVTEPKLATPAGLKKSSKKAEPVKVLQKEKKRGKRVALSDDETKETENMRKKRRRIKLPESDSSEDEVFPDSPGAYEAESPSPPPPPSPPLEPVPKTEPEPPSVKSSSGENKRKRKRVLKSKTYLDGEGCIVTEKVYESESCTDSEEELNMKTSSVHRPPAMTVKKEPREERKGPKKGTAALGKANRQVSITGFFQRK

Protein sequences, listed by entry. Tags and fused reporters are not part of them.
UniProt O14929: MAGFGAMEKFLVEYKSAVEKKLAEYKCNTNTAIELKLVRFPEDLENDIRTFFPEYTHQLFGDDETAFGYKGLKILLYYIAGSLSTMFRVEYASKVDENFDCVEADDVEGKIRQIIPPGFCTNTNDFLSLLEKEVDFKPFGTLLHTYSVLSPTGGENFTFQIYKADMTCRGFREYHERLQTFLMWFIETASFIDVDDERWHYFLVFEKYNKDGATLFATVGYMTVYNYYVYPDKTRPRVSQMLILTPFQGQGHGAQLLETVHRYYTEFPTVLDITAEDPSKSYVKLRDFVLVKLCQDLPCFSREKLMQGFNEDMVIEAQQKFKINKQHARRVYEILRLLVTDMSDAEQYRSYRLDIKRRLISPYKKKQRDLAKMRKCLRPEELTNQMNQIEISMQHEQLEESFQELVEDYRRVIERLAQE
UniProt O60934: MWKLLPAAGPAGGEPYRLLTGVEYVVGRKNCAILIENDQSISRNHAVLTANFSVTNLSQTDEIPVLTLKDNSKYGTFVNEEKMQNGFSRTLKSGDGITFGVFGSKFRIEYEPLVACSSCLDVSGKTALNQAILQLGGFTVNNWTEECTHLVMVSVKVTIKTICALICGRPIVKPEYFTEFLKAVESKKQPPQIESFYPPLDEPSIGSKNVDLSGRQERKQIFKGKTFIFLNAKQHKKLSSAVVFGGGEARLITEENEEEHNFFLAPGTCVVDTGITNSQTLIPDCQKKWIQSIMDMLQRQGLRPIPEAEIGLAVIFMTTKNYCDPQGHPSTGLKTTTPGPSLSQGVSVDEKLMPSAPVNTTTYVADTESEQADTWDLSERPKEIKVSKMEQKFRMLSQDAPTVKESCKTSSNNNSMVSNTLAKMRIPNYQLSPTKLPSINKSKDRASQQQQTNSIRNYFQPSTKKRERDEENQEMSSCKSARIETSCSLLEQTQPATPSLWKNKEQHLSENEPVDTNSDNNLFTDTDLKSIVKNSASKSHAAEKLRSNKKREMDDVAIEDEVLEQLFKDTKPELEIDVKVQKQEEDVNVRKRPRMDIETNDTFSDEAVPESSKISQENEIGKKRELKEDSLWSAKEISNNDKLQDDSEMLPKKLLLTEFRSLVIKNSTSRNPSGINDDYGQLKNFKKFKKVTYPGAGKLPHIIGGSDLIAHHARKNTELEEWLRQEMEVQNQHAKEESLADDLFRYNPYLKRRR
UniProt P27694: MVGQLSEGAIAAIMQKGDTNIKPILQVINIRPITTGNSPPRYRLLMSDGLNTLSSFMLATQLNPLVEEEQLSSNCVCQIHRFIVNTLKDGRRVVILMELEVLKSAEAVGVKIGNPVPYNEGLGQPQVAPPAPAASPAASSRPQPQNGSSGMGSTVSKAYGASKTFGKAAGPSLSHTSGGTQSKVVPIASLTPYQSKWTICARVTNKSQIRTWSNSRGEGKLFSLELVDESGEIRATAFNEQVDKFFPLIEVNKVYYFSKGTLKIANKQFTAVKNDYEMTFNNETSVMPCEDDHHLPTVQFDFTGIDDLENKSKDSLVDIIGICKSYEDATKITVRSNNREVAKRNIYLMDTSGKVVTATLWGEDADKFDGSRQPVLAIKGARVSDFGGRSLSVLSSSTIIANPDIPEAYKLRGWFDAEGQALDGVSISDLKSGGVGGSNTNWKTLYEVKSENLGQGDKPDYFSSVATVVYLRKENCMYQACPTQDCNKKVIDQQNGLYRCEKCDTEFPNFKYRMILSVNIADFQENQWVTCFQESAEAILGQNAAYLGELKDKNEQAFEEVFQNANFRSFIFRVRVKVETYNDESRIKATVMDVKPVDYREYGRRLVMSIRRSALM

Target: Flag-tagged HAT1 (UniProt O14929)
Experiment: affinity purification with mass spectrometry; Flag beads pulldown of HAT1, high-resolution LC-MS/MS; cell line not stated

| Molecule | binding |
| --- | --- |
| NBS1 (endogenous) (from UniProt O60934 1-754) | binds |
| RPA1 (endogenous) (from UniProt P27694 1-616) | binds |
| B1 | binds |

— publication PMC12639135
